Reference: the supplement of paper PMC10735217
Where a name gives a salt, the structure may show the parent alone. This is one part of the list. Single values are uncertain here, since repeats match poorly.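 Human kidney-derived cells stably carry a construct in which eight TEAD-binding elements drive luciferase, measured by luminescence in a drug-repurposing library screen. A hit is any compound whose signal exceeds the plate mean by more than five robust Z scores.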

Test system: HEK293A TEAD-LUC reporter
Test: TEAD-luciferase reporter activity (YAP activation), robust Z score vs plate; higher = stronger YAP/TEAD activation
Conditions: 24 h

Compound	TEAD-luciferase reporter activity (compound concentration: 200 nM)	TEAD-luciferase reporter activity (compound concentration: 2 uM)	TEAD-luciferase reporter activity (compound concentration: 10 uM)
CSCC[C@H](NC(=O)c1ccc(CNCc2c[nH]cn2)cc1-c1ccccc1C)C(=O)O	inactive: -0.537	inactive: 1.23	inactive: 0.434
Cc1c(Cc2ccc(OC(C)C)cc2)c(O[C@@H]2O[C@H](CO)[C@@H](O)[C@H](O)[C@H]2O)nn1C(C)C [Remogliflozin]	inactive: -1.69	inactive: 2.13	inactive: -0.184
Cc1ccc(-n2ccnc2)cc1C(O)c1c(C)cc(C(=O)O)cc1C (stereo unspecified)	inactive: 0.79	inactive: -0.595	inactive: -1.05
CC(C)(Cc1ccc(Oc2ccc(C(N)=O)cn2)cc1)NC[C@H](O)COc1cccc2[nH]c3ccccc3c12	inactive: 1.08	inactive: -1.2	inactive: 0.841
Clc1ccc(Sc2cc(Cl)c(Cl)cc2Cl)cc1 [Tetrasul]	inactive: -1.18	inactive: -0.711	inactive: -1.12
COc1ccc2c(C(=S)N(C)CC(=O)O)cccc2c1C(F)(F)F [tolrestat]	inactive: -1.36	inactive: -1.04	inactive: -1.31
CCOc1ccccc1C(=O)O [2-ethoxybenzoic acid]	inactive: 1.27	inactive: 0.259	inactive: -0.511
CCC(NC(C)C)C(O)c1ccc(O)c(O)c1 (stereo unspecified)	inactive: 0.631	inactive: 0.832	inactive: -0.392
COc1cc(Cc2cnc(N)nc2N)cc(OC)c1SC	inactive: 0.192	inactive: -0.802	inactive: 1.4
CC(C)(O)c1ccccc1CC[C@@H](SCC1(CC(=O)O)CC1)c1cccc(/C=C/c2ccc3ccc(Cl)cc3n2)c1 [Montelukast sodium]	inactive: -0.131	inactive: -0.639	inactive: 1.06
CCCc1c(OCCCOc2ccc(-c3cscn3)c(OC)c2CC2CC2)ccc2c1OC(C(=O)O)CC2 (stereo unspecified)	inactive: -0.338	inactive: -1.41	inactive: -1.53
CN[C@H](CNC(=O)N1CCC[C@@H]([C@@H](OCCNC(=O)OC)c2cccc(Cl)c2)C1)C[C@H]1CCCOC1	inactive: -0.263	inactive: -0.546	inactive: -1.01
C[C@H](CN(C(=O)c1ccc(C#N)cc1)c1ccccn1)N1CCN(c2cccc3c2OCCO3)CC1 [lecozotan hydrochloride]	inactive: 3.11	inactive: 0.288	inactive: -0.332
CCc1ccc2occ(-c3nn[nH]n3)c(=O)c2c1	inactive: -1.64	–	inactive: -0.4
Cc1ccccc1C(OCCN(C)C)c1ccccc1 (stereo unspecified) [Orphenadrine (citrate)]	inactive: -2.27	inactive: -0.874	inactive: -0.117
CCn1c2c(c3ccccc31)CCSC2(C)CCN(C)C (stereo unspecified) [tandamine]	inactive: -1.37	inactive: 0.397	inactive: 3.29
C[C@@H](C(=O)Nc1ccc(Cl)cc1)[C@H]1CC[C@@H](c2ccnc3ccc(F)cc32)CC1	inactive: -1.54	–	inactive: -1.28

Compound	TEAD-luciferase reporter activity (compound concentration: 200 nM)	TEAD-luciferase reporter activity (compound concentration: 2 uM)	TEAD-luciferase reporter activity (compound concentration: 10 uM)
O=C(O)CCCCCCCC(=O)O	inactive: -0.359	–	inactive: 1.69
O=C(O)CCCCCCCC(=O)O [Azelaic acid]	–	inactive: -0.893	–
CCn1c(=O)/c(=C2\Sc3ccccc3N2C)s/c1=C/c1cccc[n+]1CC	inactive: -0.0162	inactive: 0.42	inactive: -0.41
O=c1[nH]c2ccc([S+]([O-])CCN3CCC(Cc4ccc(F)cc4)CC3)cc2o1 (stereo unspecified)	inactive: -0.0274	inactive: 0.00705	inactive: 0.361
CCCCC[C@H](O)/C=C/[C@@H]1[C@@H](C/C=C\CCCC(=O)O)[C@H](O)C[C@H]1O	inactive: -0.54	–	inactive: 1.48
CCCCC[C@H](O)/C=C/[C@@H]1[C@@H](C/C=C\CCCC(=O)O)[C@H](O)C[C@H]1O [dinoprost]	–	inactive: 0.0653	–
CC(C)=CCC[C@](C)(O[C@@H]1O[C@H](CO)[C@@H](O)[C@H](O)[C@H]1O)[C@H]1CC[C@]2(C)[C@@H]1[C@H](O)C[C@@H]1[C@@]3(C)CC[C@H](O[C@@H]4O[C@H](CO)[C@@H](O)[C@H](O)[C@H]4O[C@@H]4O[C@H](CO)[C@@H](O)[C@H](O)[C@H]4O)C(C)(C)[C@@H]3CC[C@]12C [Ginsenoside Rd]	inactive: -0.413	inactive: -0.164	inactive: 3.67
CC(=O)Nc1ccc(OC(=O)CCCO[N+](=O)[O-])cc1 [Nitroparacetamol]	inactive: -0.86	inactive: -1.16	inactive: -0.0936
C[N+](C)(C)C[C@H](N)CC(=O)O	inactive: -0.448	inactive: -2.02	inactive: -0.224
CONC(=N)c1ccc(-c2ccc(-c3ccc(C(=N)NOC)cc3)o2)cc1 [pafuramidine]	inactive: 0.271	active: 5.76	inactive: 3.86
COC(=O)c1nc(C(F)(F)F)n2c1CN(C(=O)CC(N)Cc1cc(F)c(F)cc1F)CC2 (stereo unspecified)	inactive: -1.48	inactive: -1.73	inactive: 0.584
CC(C)c1cc(Oc2c(Br)cc(NC(=O)CC(=O)O)cc2Br)ccc1O [eprotirome]	–	inactive: -1.01	–
CC(C)c1cc(Oc2c(Br)cc(NC(=O)CC(=O)O)cc2Br)ccc1O [Eprotirome]	inactive: -1.33	–	inactive: 0.163
CC1=C(c2ccc(OC(=O)C(C)(C)C)cc2)[C@H](c2ccc(OCCN3CCCCC3)cc2)Oc2cc(OC(=O)C(C)(C)C)ccc21	inactive: -0.791	inactive: -1.26	inactive: 0.135
C=CC(=O)Nc1cccc(Nc2nc(Nc3ccc(OCCOC)cc3)ncc2F)c1 [spebrutinib besylate]	inactive: -0.821	inactive: -1.42	inactive: 2.09
Cc1cc(/N=N/c2ccc(S(N)(=O)=O)cc2)c(N)cc1N	active: 6.61	inactive: -0.0256	inactive: 1.01
COC[C@H]1C[C@@H](c2nc(-c3ccc4c(c3)COc3cc5c(ccc6nc([C@@H]7CC[C@H](C)N7C(=O)[C@@H](NC(=O)OC)C(C)C)[nH]c65)cc3-4)c[nH]2)N(C(=O)[C@H](NC(=O)OC)c2ccccc2)C1 [Velpatasvir]	inactive: -1.32	inactive: -0.11	inactive: -0.145

In another format: entries from further up

| Compound | TEAD-luciferase reporter activity (compound concentration: 200 nM) | TEAD-luciferase reporter activity (compound concentration: 2 uM) | TEAD-luciferase reporter activity (compound concentration: 10 uM) |
| --- | --- | --- | --- |
| C[N+](C)(C)C[C@H](N)CC(=O)O | inactive: -0.448 | inactive: -2.02 | inactive: -0.224 |
| CONC(=N)c1ccc(-c2ccc(-c3ccc(C(=N)NOC)cc3)o2)cc1 [pafuramidine] | inactive: 0.271 | active: 5.76 | inactive: 3.86 |
| COC(=O)c1nc(C(F)(F)F)n2c1CN(C(=O)CC(N)Cc1cc(F)c(F)cc1F)CC2 (stereo unspecified) | inactive: -1.48 | inactive: -1.73 | inactive: 0.584 |
| CC(C)c1cc(Oc2c(Br)cc(NC(=O)CC(=O)O)cc2Br)ccc1O [eprotirome] | – | inactive: -1.01 | – |
| CC(C)c1cc(Oc2c(Br)cc(NC(=O)CC(=O)O)cc2Br)ccc1O [Eprotirome] | inactive: -1.33 | – | inactive: 0.163 |
| CC1=C(c2ccc(OC(=O)C(C)(C)C)cc2)[C@H](c2ccc(OCCN3CCCCC3)cc2)Oc2cc(OC(=O)C(C)(C)C)ccc21 | inactive: -0.791 | inactive: -1.26 | inactive: 0.135 |
| C=CC(=O)Nc1cccc(Nc2nc(Nc3ccc(OCCOC)cc3)ncc2F)c1 [spebrutinib besylate] | inactive: -0.821 | inactive: -1.42 | inactive: 2.09 |
| Cc1cc(/N=N/c2ccc(S(N)(=O)=O)cc2)c(N)cc1N | active: 6.61 | inactive: -0.0256 | inactive: 1.01 |
